Test results as given in PubChem BioAssay AID1347423 (Functional Genomics Laboratory (NCATS/FGL), 2020).
The campaign covered roughly 52,000 sequences. About 210 (0.4%) were called active.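 Rule for the calls: active = gene whose silencing raises cell survival under the drug, median off-target-corrected z-score across its silencing RNAs 2 or more; inactive = the rest.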 The list shows a part of the results.

assay: Resistance to Poly (ADP-Ribose) Polymerase inhibitor: Gene Identification via Genome-wide siRNA Screen; details: mouse BRCA2 R2336H ES cells, olaparib, CellTiter-Glo viability; stronger effect = higher value
Outline: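 Mouse BRCA2 R2336H ES cells were reverse-transfected with siRNA (20 nM final), treated at 48 h with 500 nM olaparib, and read by CellTiter-Glo after 72 h. Scores: MAD-based z per siRNA, median per gene, seed off-target correction.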

Row | Sequence | z-score
1 | CCAACUCCUCUCUGGUUACTT against Olfr95 | inactive: 2.53
2 | GGUUUUUUGAUGUGGAUUGTT against Cyp4f14 | inactive: -0.255
3 | GGAUGUGCAAUAAUUUUCUTT against Fzd4 | inactive: 0.998
4 | GUAUCAUGACAGCUGUUUUTT against Olfr519 | inactive: 1.32
5 | GCUUCAAGUCAACUUAGUCTT against Hal | inactive: 1.73
6 | GCUUUGAGACUAGAUGUGGTT against A130066N16Rik | inactive: 0.871
7 | GGGACAAGUCAAAAACGAGTT against Cdc23 | inactive: -1.99
8 | CGCAUCAUAUUCUGAUUCCTT against 0610039K22Rik | inactive: 0.501
9 | GGGUGAGGAAUAUUAAUUCTT against Tuba6 | inactive: 0.54
10 | CAAUAGGACUCAUCCUGGUTT against Olfr670 | inactive: -0.829
11 | GGACCAGAAACAAAUUAAGTT against Neurod6 | inactive: 1.15
12 | CCAUUGGAUCCAUUCCUAUTT against Plcd3 | inactive: 2.27
13 | AUAGAGAAUACAACACUACTT against Olfr196 | inactive: -0.399
14 | GGCUUUGAGUAAACUGUUCTT against Olfr1014 | inactive: -0.334
15 | GCAGACAUGAACCGACUCATT against 2310003C23Rik | inactive: -0.281
16 | GGGAAGAUGAGAUUGAAGCTT against Pcdh21 | inactive: -1.04
17 | GGAGUGUGUAUGGAAAAUATT against Tll1 | inactive: -1.39
18 | GGUCAGAUUCCUGAAAUUATT against Vbp1 | inactive: -0.208
19 | GGAUGAUAUUCUCAAGUUCTT against MGC117568 | inactive: 1.06
20 | GGGAAAGAGUACUAAGAAUTT against Olfr678 | inactive: 0.505
21 | GCUAGUCUACCCAAGUGACTT against 1700027J05Rik | inactive: -0.142
22 | GGAGUCCUCUAAUGUAAAUTT against Elovl4 | inactive: 0.0372
23 | GCAUAACAGAGUCAAUACATT against 2810013E07Rik | inactive: -0.0688
24 | GGAGGUGUGGCAUCUGGAUTT against Gsn | inactive: 0.655
25 | GGAUGCUGAUUUAAAGACUTT against Rai14 | inactive: -1.07
26 | GGGAUAUUCAGCAAACAUUTT against Xpo5 | inactive: 1.33

Reformatted: results already given
Row	Sequence	z-score
12	CCAUUGGAUCCAUUCCUAUTT against Plcd3	inactive: 2.27
13	AUAGAGAAUACAACACUACTT against Olfr196	inactive: -0.399
14	GGCUUUGAGUAAACUGUUCTT against Olfr1014	inactive: -0.334
15	GCAGACAUGAACCGACUCATT against 2310003C23Rik	inactive: -0.281
16	GGGAAGAUGAGAUUGAAGCTT against Pcdh21	inactive: -1.04
17	GGAGUGUGUAUGGAAAAUATT against Tll1	inactive: -1.39
18	GGUCAGAUUCCUGAAAUUATT against Vbp1	inactive: -0.208

(listing goes on)

Row | Sequence | z-score
27 | GCUACAGAUUAGGGACAUATT against Pcdhb2 | inactive: 0.35
28 | CCAUCUCUUCGACAAUUAUTT against Chrne | inactive: -1.18
29 | GGGUGAUGUUCUUCCUGGATT against 2310032D16Rik | inactive: 0.0239
30 | GCCAACUUUGGACCAUUAUTT against BC087945 | inactive: -0.503
31 | CCAAAUUUAGCCAGGAUUATT against Ogn | inactive: 2.76
32 | GCAGACAUUGCACAAACCCTT against Ankrd10 | inactive: -2.03
33 | GCGCAUCGAAAAAUGGAUUTT against Rgl3 | inactive: -0.211
34 | CCACUUCCACCAAUGUAUATT against Igsf9 | inactive: 0.0784
35 | CCACAAGCUCUUUGUUUGCTT against Habp2 | inactive: 1.3
36 | CGAAACUCGUGAAUGAAAATT against Gtse1 | inactive: 0.538
37 | GGGCUUAUGUUUCCAGACCTT against LOC381813 | inactive: 0.288
38 | GGUUUUUAUUUAAAGCACGTT against Atp5a1 | inactive: -0.0394
39 | GCCUAUUACCUACACACAGTT against Rhof | inactive: -0.0393
40 | GCAGGUAUAAGAAGAGAAUTT against 1700128F08Rik | inactive: 0.056
41 | CCAUGGUUAUUAAUUAUGGTT against Slc24a4 | inactive: 0.997
42 | GGGAGGUGCAGCUGAUGAATT against Tesk1 | inactive: 1.84
43 | GGAGCAUUGCUCUUCUUCATT against 1110007L15Rik | inactive: 1.91
44 | GGCCUAUUCAGCGAAGAUGTT against Ppp5c | inactive: 0.104
45 | CCCAGACGAGGAUUUAUCCTT against Chd4 | inactive: -0.298
46 | GCAAAUCCACGCUAAAGCATT against Nxph1 | inactive: -0.154
47 | GGGAGGUACUCAAGGUUCATT against Tcfe3 | inactive: -0.858
48 | GGGAUAUGCAGAGAAUAGATT against 1700095F04Rik | inactive: 0.424
49 | GCAGAGGUCUUACAAUUUATT against Epb4.1l2 | inactive: -0.347
50 | GGCGAGCGACUGUGUAAAGTT against 6330503K22Rik | inactive: 0.72
51 | GGCUCAGAUCUGGGACACUTT against Rab11b | inactive: -1.87
52 | GGAUGAUUUGGCCAACACCTT against 0610007C21Rik | inactive: 1.19

Row | Sequence | z-score
53 | GGAGCACAGGCUCAGAAAATT against Ltb | inactive: 1.23
54 | CCAAUGGGCGUAAUCACUUTT against Obox3 | inactive: -1.29
55 | GGUGGAAGUGUAAAUAUCATT against Ptprd | inactive: 1.43
56 | GGAAGUUUCUGGAAACACATT against Mbd3 | inactive: -0.241
57 | GGUGGAAAAGUGAAAAAGGTT against Ddx18 | inactive: 1.06
58 | CGAGAUAGAGUCUGGAAUUTT against 1700092C17Rik | inactive: -0.353
59 | GAAGCUGAGUAUCUAUGGUTT against ORF18 | inactive: 0.241
60 | GGAAGAAAUGCAUAAUGCATT against Mesdc2 | inactive: 0.109
61 | GGUAUAUGUAACGUGUACUTT against Ercc4 | inactive: -0.141
62 | GGUCCAAGUCCGUCUACUATT against Acbd3 | inactive: -1.85
63 | GGAACACUCCAGUUUGAAUTT against Thsd1 | inactive: 0.915
64 | GGAAUUAGCUGAACAUUGUTT against Txndc8 | inactive: -1.6
65 | GGCUGUAGACAAAGAAUAUTT against Ecel1 | inactive: 0.569
66 | GGGAUUUUAGAAGCUAUGATT against A830018L16Rik | inactive: -1.93
67 | GCGAGAAUUGGACAAAUUATT against Cach | inactive: 0.292
68 | CCCUGAACCCUAACAUCACTT against Tcirg1 | inactive: 1.05
69 | GGGUAAAAAGCUAGGUUUGTT against Acyp1 | inactive: 0.148
70 | AAACAUCACCAACAUCAGUTT against Olfr6 | inactive: -1.34
71 | GCCAGGACAAUCUGACUAUTT against Napsa | inactive: 0.781
72 | GGAUCCUGAUCAGCUAUAUTT against Gcn5l2 | inactive: -1.1
73 | GCUACCAUAUAUAUCUCACTT against Nox3 | inactive: 0.387
74 | GCUUAUCCGCCAUCAAAGATT against AI854635 | inactive: 1.95
75 | GCUCUUGGAGCAUUUGUAGTT against Rab32 | inactive: 0.522
76 | GGAGAUCGUGCAAUUCAUUTT against Rasl2-9 | inactive: -0.53
77 | GCCAUGUGCUGGAAAACUCTT against Pfc | inactive: 0.523
78 | CCCUGUUACUGGAUGCAGUTT against Olfr624 | inactive: -2.16

Row | Sequence | z-score
79 | GGACCUUAAAGAAACAUUUTT against 1700069O15Rik | inactive: -1.94
80 | GGAUAGACAGAGAAAAGAUTT against Pcdhgb1 | inactive: -1.49
81 | GGAGAUGAGCUGUAUGUGATT against D7Rp2e | inactive: -0.125
82 | CGAUUCAAUGUACCUGUAATT against 1110005A23Rik | inactive: -0.618
83 | CCUCAUCAUAUUCUCCUGATT against Olfr869 | inactive: -0.344
84 | GGGCAUCGGAGCUUUCUUATT against 9530009G21Rik | inactive: 0.998
85 | GGGAUUUCUAUCAAGGGACTT against Klf16 | inactive: 0.781
86 | GGUUUUGUUAAAGAAGACGTT against 4833439L19Rik | inactive: 0.242
87 | GCGGCAGUUUGAUUUUGGUTT against Wsb2 | inactive: -1.44
88 | GCAACCAACUAUGGACCGCTT against Sec24d | inactive: 0.173
89 | GCUAAGGACUGAGGUGCUUTT against 0610009D07Rik | inactive: 2.02
90 | CCGUCCAUUGCACUGGAUATT against Arntl2 | inactive: -1.75
91 | GCUGAUACUUGUGUCUUCUTT against Sepp1 | inactive: -1.15
92 | GGAGUAUUUACACUUCGACTT against H2-Ob | inactive: -0.0524
93 | GGUAAAAUCACAGAAGAAGTT against Ddx55 | inactive: 1.33
94 | GGGCUUGUUGUCCUACUUCTT against Olfr390 | inactive: 0.0889
95 | GGACAUAGAUCUACCUGAATT against Ctsb | inactive: -0.683
96 | GCCUUGGCAGUAGUCUACUTT against Olfr429 | inactive: -0.992
97 | GGUCCAUGAUUGAAACACGTT against Srpr | inactive: 0.466
98 | GGACUAUUUCACAAACGCATT against Moxd1 | inactive: -0.126
99 | GGUAUUUUUCAUGGCUCUCTT against Olfr305 | inactive: 1.09
100 | GGUAGUGGAGUUCAAGUCCTT against Dnahc1 | inactive: 2.6
101 | GCGGAAGUGGAUUCUAGAGTT against 1110028N05Rik | inactive: -0.284
102 | GGAGGAACAAGUUGUGCCUTT against 9430022F06Rik | inactive: 0.999
103 | GGGCUUUGAAUACAUCCUGTT against 2610524G07Rik | inactive: 0.218
104 | GCCCUACGCUCGAAUGGAATT against Il17b | inactive: -0.66

From entry 103 up to 104, as listed above:
Row | Sequence | z-score
103 | GGGCUUUGAAUACAUCCUGTT against 2610524G07Rik | inactive: 0.218
104 | GCCCUACGCUCGAAUGGAATT against Il17b | inactive: -0.66
